# Measured values published in paper doi:10.1101/2022.04.11.487887 (bioRxiv, 2022).
# These are yes or no findings as the source states them, for the method shown. Sequences can lack the tags named with a protein.
# B1: Strep-His-Halo-3C-human γTuNA I67D/L70D (domain or fragment)
# chain: SPTRARNMKDFENQDTEDKKENFNLKLRIYFLEERMQQEFHGPTEH
# B2: Strep-His-Halo-3C-Xenopus γTuNA I67D/L70D (domain or fragment)
# chain: MKDFEKQDAEDKKENFNLKLRIYFLEEQVQQKCDNSSEDLYRMNIE
# B3: Strep-His-Halo-3C-human γTuNA I67A/L70A (domain or fragment)
# chain: SPTRARNMKDFENQATEAKKENFNLKLRIYFLEERMQQEFHGPTEH
# Key:
# Assay in all cases: SEC
# [1] = biological target: Strep-His-Halo-3C-human γTuNA I67D/L70D (human)
# [2] = biological target: Strep-His-Halo-3C-Xenopus γTuNA I67D/L70D (Xenopus laevis)
# [3] = biological target: Strep-His-Halo-3C-human γTuNA I67A/L70A (human)
binder,measurement,setting,value
B1,binding,[1],no binding (tested: 50 μM)
B2,binding,[2],no binding (tested: 50 μM)
B3,binding,[3],no binding (tested: 50 μM)
